Results: paper PMC8003079, “Virus-Like Particles Produced Using the Brome Mosaic Virus Recombinant Capsid Protein Expressed in a Bacterial System” (International Journal of Molecular Sciences, 2021)
These are yes or no findings as the source states them, for the method shown. Some binding calls cover weakened binding; strength is not graded here.

Tests used:
[1] = target: recombinant brome mosaic virus (BMV) capsid protein (brome mosaic virus) (UniProt P03602); experiment: DLS; empty VLPs assembled without cargo by two-step dialysis; sodium acetate buffer pH 4.8, 25 °C; both purified
[2] = target: recombinant brome mosaic virus (BMV) capsid protein (brome mosaic virus) (UniProt P03602); experiment: AFM; empty VLPs, 5 ug/mL, dried on mica, tapping mode in air; both purified
[3] = target: recombinant brome mosaic virus (BMV) capsid protein (brome mosaic virus) (UniProt P03602); experiment: cross-linking; 5 mM DSS, rCP in MST buffer pH 6.8; 5, 10, 15 and 30 min; SDS-PAGE; both purified
[4] = target: recombinant brome mosaic virus (BMV) capsid protein (brome mosaic virus) (UniProt P03602); experiment: cryo-TEM imaging; empty VLPs assembled without cargo by two-step dialysis; vitrified samples, 120 kV; both purified
[5] = target: recombinant brome mosaic virus (BMV) capsid protein (brome mosaic virus) (UniProt P03602); experiment: DLS; rCP 0.1 mg/mL, pH 6.8; hydrodynamic diameter, volume distribution; also after 24 h at 4 °C; both purified

Measured: binding

B1: recombinant brome mosaic virus (BMV) capsid protein (natural protein)
chain: MSTSGTGKMTRAQRRAAARRNRWTARVQPVIVEPLAAGQGKAIKAIAGYSISKWEASSDAITAKATNAMSITLPHELSSEKNKELKVGRVLLWLGLLPSVAGRIKACVAEKQAQAEAAFQVALAVADSSKEVVAAMYTDAFRGATLGDLLNLQIYLYASEAVPAKAVVVHLEVEHVRPTFDDFFTPVYR
notes: brome mosaic virus capsid (coat) protein; In the MST assay one copy was labelled with Monolith NT Protein Labeling Kit RED-NHS 647 and titrated with unlabelled rCP; also called rCP; CP; source: E. coli Rosetta 2(DE3)pLysS, purified (Ni-NTA, TEV digestion, second Ni-NTA); not shown: His tag (inferred from Ni-NTA purification; vector pMCSG48), N-terminal, cleaved
binds: [1] | [2] | [3] | [4] | [5]
